# Experimental data: the supplement of paper PMC8728848
# The other results are listed elsewhere or left out.
# B1: AT3G44510(29) (Arabidopsis thaliana), F4J341 (protein)
# chain: MEEHLQGRIKLHDGRYLAYKERGVPKDDAKFTIVLVHGFGSSKDMNFNVSQELVNEIGIYFVLYDRAGYGESDPNPKRSLKSEAYDVQELADGLEIGSRFYLIGISMGSYTVWSCLKHIPQRLAGVAMVAPVVNFRWPSIPKSLMPKDYRREVAKWSVWIANYFPGLLQWLVTQNMFSTTSMLEKNPVYFNDQDIEVLKHIKGFPMLTKEKLRERGVFGTLRSDFLVAFGDWDFDPADLPDPSLSGPEKGSSSVHIWQGYEDKVMPFQLQRCLCRKLPWIRYHEVPKGGHLIVHYDGICDAILKSLLLGEDLPMYKPKAVITEPA
# What was measured:
# Assay in all cases: glycan array binding signal (z-score within array); higher = stronger binding
# Settings in all cases: glycan notation: IUPAC condensed, linker removed
# GlcNAc(b1-3)GalNAc = molecular target: GlcNAc(b1-3)GalNAc
# Summary of the method: (§1)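 The binding signal is a Z-score computed within each array and averaged over linkers. Arrays of the same protein sequence at different concentrations or buffers were also averaged together. Data originate from 3228 arrays in the Consortium for Functional Glycomics database, kept only where the protein sequence was available.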
# GlcNAc(b1-3)Man = molecular target: GlcNAc(b1-3)Man
# Summary of the method: as §1
# [1] = molecular target: GlcNAc(b1-3)[GlcNAc(b1-4)][GlcNAc(b1-6)]GlcNAc
# Summary of the method: as §1
# [2] = molecular target: GlcNAc(b1-3)[GlcNAc(b1-6)]Gal(b1-4)GlcNAc
# Summary of the method: as §1
# [3] = molecular target: GlcNAc(b1-3)[GlcNAc(b1-6)]GalNAc
# Summary of the method: as §1
# [4] = molecular target: GlcNAc(b1-4)Gal(b1-4)GlcNAc
# Summary of the method: as §1
# GlcNAc(b1-4)GlcNAc = molecular target: GlcNAc(b1-4)GlcNAc
# Summary of the method: as §1
# [5] = molecular target: GlcNAc(b1-4)GlcNAc(b1-4)GlcNAc
# Summary of the method: as §1
# [6] = molecular target: GlcNAc(b1-4)GlcNAc(b1-4)GlcNAc(b1-4)GlcNAc(b1-4)GlcNAc
# Summary of the method: as §1
# [7] = molecular target: GlcNAc(b1-4)GlcNAc(b1-4)GlcNAc(b1-4)GlcNAc(b1-4)GlcNAc(b1-4)GlcNAc
# Summary of the method: as §1
# [8] = molecular target: GlcNAc(b1-4)[GlcNAc(b1-6)]GalNAc
# Summary of the method: as §1
# [9] = molecular target: GlcNAc(b1-6)Gal(b1-4)GlcNAc
# Summary of the method: as §1
# GlcNAc(b1-6)GalNAc = molecular target: GlcNAc(b1-6)GalNAc
# Summary of the method: as §1
# [10] = molecular target: GlcNAc6S(b1-3)Gal(b1-4)GlcNAc
# Summary of the method: as §1
# Kdn(a2-3)Gal(b1-3)GalNAc = molecular target: Kdn(a2-3)Gal(b1-3)GalNAc
# Summary of the method: as §1
# Kdn(a2-3)Gal(b1-3)GlcNAc = molecular target: Kdn(a2-3)Gal(b1-3)GlcNAc
# Summary of the method: as §1
# Kdn(a2-3)Gal(b1-4)Glc = molecular target: Kdn(a2-3)Gal(b1-4)Glc
# Summary of the method: as §1
# Kdn(a2-3)Gal(b1-4)GlcNAc = molecular target: Kdn(a2-3)Gal(b1-4)GlcNAc
# Summary of the method: as §1
# [11] = molecular target: Kdn(a2-3)Gal(b1-4)[Fuc(a1-3)]GlcNAc
# Summary of the method: as §1
# Kdn(a2-6)Gal(b1-4)GlcNAc = molecular target: Kdn(a2-6)Gal(b1-4)GlcNAc
# Summary of the method: as §1
# [12] = molecular target: Man(a1-2)Man(a1-2)Man(a1-3)Man
# Summary of the method: as §1
# [13] = molecular target: Man(a1-2)Man(a1-2)Man(a1-6)[Man(a1-3)]Man
# Summary of the method: as §1
# Man(a1-2)Man(a1-3)Man = molecular target: Man(a1-2)Man(a1-3)Man
# Summary of the method: as §1
# [14] = molecular target: Man(a1-2)Man(a1-3)[Man(a1-2)Man(a1-6)]Man
# Summary of the method: as §1
# [15] = molecular target: Man(a1-2)Man(a1-3)[Man(a1-2)Man(a1-6)]Man(a1-6)[Man(a1-2)Man(a1-2)Man(a1-3)]Man
# Summary of the method: as §1
# [16] = molecular target: Man(a1-2)Man(a1-3)[Man(a1-2)Man(a1-6)]Man(a1-6)[Man(a1-2)Man(a1-2)Man(a1-3)]Man(b1-4)GlcNAc(b1-4)GlcNAc
# Summary of the method: as §1
# [17] = molecular target: Man(a1-2)Man(a1-3)[Man(a1-6)]Man(a1-6)[Man(a1-2)Man(a1-3)]Man(b1-4)GlcNAc(b1-4)GlcNAc
# Summary of the method: as §1
# [18] = molecular target: Man(a1-2)Man(a1-6)[Man(a1-3)]Man(a1-6)[Man(a1-2)Man(a1-2)Man(a1-3)]Man
# Summary of the method: as §1
# [19] = molecular target: Man(a1-2)Man(a1-6)[Man(a1-3)]Man(a1-6)[Man(a1-2)Man(a1-2)Man(a1-3)]Man(b1-4)GlcNAc(b1-4)GlcNAc
# Summary of the method: as §1
# Man(a1-3)[Man(a1-6)]Man = molecular target: Man(a1-3)[Man(a1-6)]Man
# Summary of the method: as §1
# [20] = molecular target: Man(a1-3)[Man(a1-6)]Man(a1-6)[Man(a1-2)Man(a1-3)]Man(b1-4)GlcNAc(b1-4)GlcNAc
# Summary of the method: as §1
# [21] = molecular target: Man(a1-3)[Man(a1-6)]Man(a1-6)[Man(a1-3)]Man
# Summary of the method: as §1
# [22] = molecular target: Man(a1-3)[Man(a1-6)]Man(a1-6)[Man(a1-3)]Man(b1-4)GlcNAc(b1-4)GlcNAc
# Summary of the method: as §1
# [23] = molecular target: Man(a1-3)[Man(a1-6)]Man(b1-4)GlcNAc(b1-4)GlcNAc
# Summary of the method: as §1
# [24] = molecular target: Man(a1-3)[Man(a1-6)]Man(b1-4)GlcNAc(b1-4)[Fuc(a1-6)]GlcNAc
# Summary of the method: as §1
# Man(a1-6)Man = molecular target: Man(a1-6)Man
# Summary of the method: as §1
# Man(b1-4)GlcNAc = molecular target: Man(b1-4)GlcNAc
# Summary of the method: as §1
# MurNAc(b1-4)GlcNAc = molecular target: MurNAc(b1-4)GlcNAc
# Summary of the method: as §1
binder,measurement,setting,value
B1,glycan array binding signal (z-score),GlcNAc(b1-3)GalNAc,-0.697
same,glycan array binding signal (z-score),GlcNAc(b1-3)Man,-0.898
same,glycan array binding signal (z-score),[1],-1
same,glycan array binding signal (z-score),[2],0.341
same,glycan array binding signal (z-score),[3],0.015
same,glycan array binding signal (z-score),[4],-0.387
same,glycan array binding signal (z-score),GlcNAc(b1-4)GlcNAc,-0.957
same,glycan array binding signal (z-score),[5],-0.406
same,glycan array binding signal (z-score),[6],0.486
same,glycan array binding signal (z-score),[7],-0.257
same,glycan array binding signal (z-score),[8],-0.544
same,glycan array binding signal (z-score),[9],-0.408
same,glycan array binding signal (z-score),GlcNAc(b1-6)GalNAc,0.273
same,glycan array binding signal (z-score),[10],-0.216
same,glycan array binding signal (z-score),Kdn(a2-3)Gal(b1-3)GalNAc,-0.085
same,glycan array binding signal (z-score),Kdn(a2-3)Gal(b1-3)GlcNAc,-0.008
same,glycan array binding signal (z-score),Kdn(a2-3)Gal(b1-4)Glc,-0.233
same,glycan array binding signal (z-score),Kdn(a2-3)Gal(b1-4)GlcNAc,-0.701
same,glycan array binding signal (z-score),[11],-0.168
same,glycan array binding signal (z-score),Kdn(a2-6)Gal(b1-4)GlcNAc,-1.08
same,glycan array binding signal (z-score),[12],0.166
same,glycan array binding signal (z-score),[13],-0.15
same,glycan array binding signal (z-score),Man(a1-2)Man(a1-3)Man,-0.244
same,glycan array binding signal (z-score),[14],-0.23
same,glycan array binding signal (z-score),[15],-0.05
same,glycan array binding signal (z-score),[16],0.354
same,glycan array binding signal (z-score),[17],-0.325
same,glycan array binding signal (z-score),[18],-0.613
same,glycan array binding signal (z-score),[19],-0.348
same,glycan array binding signal (z-score),Man(a1-3)[Man(a1-6)]Man,-0.444
same,glycan array binding signal (z-score),[20],0.071
same,glycan array binding signal (z-score),[21],0.202
same,glycan array binding signal (z-score),[22],0.202
same,glycan array binding signal (z-score),[23],-0.041
same,glycan array binding signal (z-score),[24],-0.209
same,glycan array binding signal (z-score),Man(a1-6)Man,-0.552
same,glycan array binding signal (z-score),Man(b1-4)GlcNAc,0.16
same,glycan array binding signal (z-score),MurNAc(b1-4)GlcNAc,-0.652

# Retrieved one by one from the list above (2):
binder,measurement,setting,value
B1,glycan array binding signal (z-score),[23],-0.041
same,glycan array binding signal (z-score),Kdn(a2-3)Gal(b1-3)GlcNAc,-0.008
